The whole screen tested about 340,000 compounds, of which about 6,200 (1.8%) were called active. Inconclusive results, whose numbers are uncertain, are shown with a selection of clear calls. Calls come from the whole dose curve; as a rule, active = well fitted activation curve with a large enough effect; inconclusive = small, poorly fitted or top-dose-only effect; inactive = no such curve, though single readings can be large or run the other way. Potencies beside an inconclusive call are fits to weak or partial responses and may not hold up.
Experiment: A quantitative high throughput screen for small molecules that induce DNA re-replication in SW480 colon adenocarcinoma cells. Note: nearly all actives have a fitted effect of over 55% in size.
Conditions: Hoechst DNA content imaging, 48 h; series mostly up to 46.1 µM
How it was run: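 Image-based DNA-content assay: after two days of treatment, nuclei were labelled with the DNA dye Hoechst and imaged, and hits were compounds raising the count of nuclei showing high fluorescence intensity.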
Potency is the fitted concentration of half-maximal effect.

Row | SMILES | Potency
1 | O=C(NCCOc1ccccc1Cl)C(=O)Nc1ccccc1 | inconclusive: 16.4 µM [activator, single point]
2 | COCCn1c(SCC(=O)Nc2cccc(S(N)(=O)=O)c2)nc2ccccc21 | inactive
3 | C=CCNc1oc(-c2ccc(OCC)cc2)nc1C#N | inactive
4 | O=C(NN1C(=O)/C(=C/c2ccc(O)c(O)c2)SC1=S)c1ccccc1 | inconclusive: 29.1 µM [activator, single point]
5 | O=C(Nc1ccc(F)cc1)c1cnc(-c2ccccc2)nc1-c1ccccc1 | inconclusive: 18.4 µM [activator, single point]
6 | COc1ccc(N2C(=O)C(CN3CCN(C)CC3)C2c2ccccc2)cc1 (configuration not stated) | inactive
7 | O=C1c2cccc3cc([N+](=O)[O-])cc(c23)C(=O)N1CC1CCCO1 (configuration not stated) | inconclusive: 25.9 µM [activator, single point]
8 | COC(=O)c1ccc(/C=C/c2c(-c3ccsc3)sc3ccccc23)cc1 | active: 4.11 µM
9 | O=C1c2[nH]nc(-c3ccccc3O)c2C(c2cccc(Cl)c2)N1Cc1ccco1 (configuration not stated) | inconclusive: 18.4 µM [activator, single point]
10 | CC(C)OCCCNC(=O)c1c(N)n(/N=C/c2cccs2)c2nc3ccccc3nc12 | inconclusive: 1.64 µM [activator, partial curve, poor fit]
11 | O=C(CSc1nnc(-c2ccncc2)o1)N1CCCC1 | inconclusive: 29.1 µM [activator, partial curve, poor fit]
12 | CCOc1ccc(-c2cc(N)n(S(=O)(=O)c3ccc(OC)c(OC)c3)n2)cc1 | inconclusive: 29.1 µM [activator, single point]
13 | CC1CN(c2nc3c(c(=O)[nH]c(=O)n3C)n2Cc2ccccc2F)CC(C)O1 (configuration not stated) | inactive
14 | CCOP(=O)(OCC)C1NC(=O)N(c2ccccc2)C1=O (configuration not stated) | inactive
15 | Cc1cccc(/C=N/NC(=O)c2ccccc2OCc2cccc(Br)c2)n1 | inactive
16 | COc1ccc(C2=Nc3ccc(Br)cc3C(c3ccccc3)N2CC(=O)NN)cc1 (configuration not stated) | inconclusive: 29.1 µM [activator, single point]
17 | Cc1ccc(CS(=O)(=O)CCC(=O)NCc2ccccc2Cl)cc1 | inconclusive: 25.9 µM [activator, single point]
18 | CCc1ccc(-c2cn3nc(-c4ccccc4)cnc3n2)cc1 | inconclusive: 0.731 µM [activator, partial curve]
19 | CCN(CC)c1ccc(/C=N/NC(=O)c2nnn(-c3nonc3N)c2C(C)C)c(O)c1 | active: 23.1 µM
20 | CCOC(=O)c1c(NC(=S)Nc2ccccc2)sc2c1CC(C)(C)SC2 | inconclusive: 11.6 µM [activator, single point]
21 | Cc1ccc(C)c(NC(=O)[C@@H]2CCCN2S(=O)(=O)c2ccccc2F)c1 | inactive
22 | CC(NC(=O)c1ccco1)C(=O)OCC(=O)N1CCCCCC1 (configuration not stated) | inactive
23 | Cc1ccc(NC(=O)CN(C)C(=O)CCC(=O)N2CCOCC2)cc1 | inconclusive: 11.6 µM [activator, single point]

Row | SMILES | Potency
24 | Cc1ccc(Nc2nc(N)c([N+](=O)[O-])c(N3CCC(C)CC3)n2)cc1C | inconclusive: 0.0046 µM [activator, full curve, poor fit]
25 | COc1ccc(CCN=C(N)NS(=O)(=O)c2ccccc2)cc1 | inactive
26 | CN1CCN(c2ccccc2NC(=O)c2ccc(-c3ccc(Br)cc3)o2)CC1 | active: 8.2 µM
27 | O=C(CSc1nnc(NC(=O)C2CCC2)s1)Nc1ccccc1F | inactive
28 | CC1CCCC(NC(=O)c2cc(-c3ccncc3)nc3ccccc23)C1C (configuration not stated) | inconclusive: 0.366 µM [activator, full curve, poor fit]
29 | CC(C)Cn1c(-c2csc(C(C)C)c2)n[nH]c1=S | inconclusive: 4.11 µM [activator, full curve, poor fit]
30 | COc1cccc(/C=N/N2C(=O)CSC2=S)c1O | inconclusive: 14.6 µM [activator, single point]
31 | COc1ccc(C2C=C(C34CC5CC(CC(C5)C3)C4)NC(=S)N2)cc1OC (configuration not stated) | inconclusive: 20.6 µM [activator, single point]
32 | Cc1ccc(Sc2nnc(Cc3ccccc3)c3ccccc23)cc1 | inconclusive: 18.4 µM [activator, single point]
33 | COc1ccc(C(C)=O)cc1CS(=O)(=O)CC(=O)NCCc1c[nH]c2ccccc12 | inactive
34 | CCOC(=O)C1CCN(C(=O)c2cc3c(-c4ccc(OC)c(OC)c4)nn(C)c3s2)CC1 | inactive
35 | Cc1cccc(NC(=S)N(CCCN2CCOCC2)C(C)c2cc3ccccc3o2)c1 (configuration not stated) | inactive
36 | CCn1c(SCC(=O)NC2=NCCS2)nnc1C(C)NC(=O)c1ccc(Cl)cc1 (configuration not stated) | inactive
37 | COc1ccc2nc(SCC(=O)NC3CCCCC3C)[nH]c2c1 (configuration not stated) | inconclusive: 29.1 µM [activator, single point]
38 | CCc1ccc(/C=C2/Sc3ccccc3N(CC(=O)NCCCN3CCOCC3)C2=O)cc1 | inconclusive: 14.6 µM [activator, single point]
39 | COc1ccccc1N1CCN(S(=O)(=O)CCNC(=O)c2cc(OC)c(OC)c(OC)c2)CC1 | inconclusive: 18.4 µM [activator, single point]
40 | CN1C(=O)/C(=C2\SC(N)=NC2=O)c2ccccc21 | inconclusive: 29.1 µM [activator, single point]
41 | CCOc1ccccc1NC(=O)CN1CCC(NC(=O)Nc2ccccc2)CC1 | inconclusive: 3.16 µM [activator, single point]
42 | CC1CCCC(N2CCN(C(=O)c3ccc([N+](=O)[O-])cc3)CC2)C1 (configuration not stated) | active: 8.2 µM
43 | CCOC(=O)/C(C#N)=C/c1ccc(N2CCCCC2)cc1 | inconclusive: 29.1 µM [activator, single point]
44 | CCN(CC)CCNC(=O)c1ccc(NC(=O)c2cc(-c3ccncc3)nc3ccccc23)cc1 | inconclusive: 20.6 µM [activator, single point]
45 | O=C(CCN1CCc2ccccc2C(c2ccccc2)C1)c1ccc2c(c1)OCCO2 (configuration not stated) | inconclusive: 20.6 µM [activator, single point]
46 | COC(=O)c1c(NC(=O)CN2CCN(S(=O)(=O)c3ccccc3[N+](=O)[O-])CC2)sc2c1CCC(C)C2 (configuration not stated) | inconclusive: 4.11 µM [activator, partial curve, poor fit]

Row | SMILES | Potency
47 | COc1ccc2[nH]c3c(c2c1)CCN1C(=O)N([C@@H](C)C(=O)NC2CCCC2)C(=O)[C@]31C | inconclusive: 0.164 µM [activator, partial curve, poor fit]
48 | C/C=C/C(=O)Nc1ccc(N2CCN(c3ccc(C(F)(F)F)cn3)CC2)nc1 | inconclusive: 18.4 µM [activator, single point]
49 | CCOC(=O)C1=C(CN2CCCCCC2)NC(=O)NC1c1ccc2c(c1)OCO2 (configuration not stated) | inconclusive: 29.1 µM [activator, partial curve, poor fit]
50 | CC1CC(C)CN(C(=O)c2ccc(N3CC4CC(C3)c3cccc(=O)n3C4)c([N+](=O)[O-])c2)C1 (configuration not stated) | inconclusive: 1.64 µM [activator, single point]
51 | CC1CCc2sc(C(=O)NC3CCN(Cc4ccccc4)CC3)cc2C1 (configuration not stated) | inconclusive: 29.1 µM [activator, single point]
52 | CCN1CCN(CCCNC(=O)c2cc3c(=O)oc4ccc(C)cc4c3s2)CC1 | inconclusive: 14.6 µM [activator, partial curve]
53 | C[C@@]12C(=O)Nc3cc(F)c(F)cc3C(=O)N1[C@H]1c3cc(Cl)ccc3OC[C@@H]1[C@@H]2c1ccccc1 | inconclusive: 20.6 µM [activator, partial curve]
54 | CCN(CC)c1ccc(C=Nc2ccccc2C)c(O)c1 | inconclusive: 16.4 µM [activator, single point]
55 | O=C(NCCOc1cccc2cccnc12)c1cccs1 | inactive
56 | O=C(/C=C/c1ccco1)NC(=S)Nc1cc(C(F)(F)F)ccc1N1CCOCC1 | inconclusive: 4.61 µM [activator, full curve, poor fit]
57 | COc1ccccc1CN(C)C(=O)C(NC(=O)Cc1cccc2ccccc12)C(C)C (configuration not stated) | inconclusive: 16.4 µM [activator, single point]
58 | COc1ccc(NC(=S)NNC(=O)Cn2nc(C(F)F)cc2C(F)F)cc1 | inconclusive: 25.9 µM [activator, partial curve, poor fit]
59 | N#CCCN1CCCc2cc(N=Nc3ccc(C(F)(F)F)cc3)ccc21 | inconclusive: 20.6 µM [activator, single point]
60 | CC1Cc2c([nH]c3ccccc23)C(=O)N1 (configuration not stated) | inconclusive: 4.61 µM [activator, partial curve, poor fit]
61 | O=c1cc(O)c2sc(Nc3ccc(F)cc3)nc2[nH]1 | inconclusive: 11.6 µM [activator, partial curve, poor fit]
62 | NC(=O)COC(=O)c1ccc2noc(-c3ccccc3)c2c1 | inconclusive: 0.116 µM [activator, full curve, poor fit]
63 | Cc1ccc(S(=O)(=O)N2CCCCC2)cc1C(=O)N1CCN(CCO)CC1 | inactive
64 | Cc1cccc(Oc2c([N+](=O)[O-])c(=O)n(C)c3ccccc23)c1 | inconclusive: 20.6 µM [activator, single point]
65 | S=c1[nH]nc(CCc2nc3ccccc3[nH]2)n1-c1ccccc1 | inactive
66 | O=C(CSc1cccc2cccnc12)Nc1cc(C(=O)O)cc(C(=O)O)c1 | inconclusive: 18.4 µM [activator, single point]
67 | C[C@H](CO)N1C[C@H](C)[C@@H](CN(C)Cc2ccncc2)Oc2c(NC(=O)Cc3ccccc3)cccc2C1=O | inconclusive: 29.1 µM [activator, single point]

Filtered by structure, the compounds so far containing a CF3 group
Row | SMILES | Potency
48 | C/C=C/C(=O)Nc1ccc(N2CCN(c3ccc(C(F)(F)F)cn3)CC2)nc1 | inconclusive: 18.4 µM [activator, single point]
56 | O=C(/C=C/c1ccco1)NC(=S)Nc1cc(C(F)(F)F)ccc1N1CCOCC1 | inconclusive: 4.61 µM [activator, full curve, poor fit]
59 | N#CCCN1CCCc2cc(N=Nc3ccc(C(F)(F)F)cc3)ccc21 | inconclusive: 20.6 µM [activator, single point]

Reference: PubChem BioAssay AID624297 (National Center for Advancing Translational Sciences (NCATS), 2012)
